1 molecule from paper PMC6626598 can be followed below.

Chains of the proteins cited; added tags and fusions are not shown. Lines headed by an entry give the natural chain unless they say otherwise; changes in a name come on top.
UniProt O95835: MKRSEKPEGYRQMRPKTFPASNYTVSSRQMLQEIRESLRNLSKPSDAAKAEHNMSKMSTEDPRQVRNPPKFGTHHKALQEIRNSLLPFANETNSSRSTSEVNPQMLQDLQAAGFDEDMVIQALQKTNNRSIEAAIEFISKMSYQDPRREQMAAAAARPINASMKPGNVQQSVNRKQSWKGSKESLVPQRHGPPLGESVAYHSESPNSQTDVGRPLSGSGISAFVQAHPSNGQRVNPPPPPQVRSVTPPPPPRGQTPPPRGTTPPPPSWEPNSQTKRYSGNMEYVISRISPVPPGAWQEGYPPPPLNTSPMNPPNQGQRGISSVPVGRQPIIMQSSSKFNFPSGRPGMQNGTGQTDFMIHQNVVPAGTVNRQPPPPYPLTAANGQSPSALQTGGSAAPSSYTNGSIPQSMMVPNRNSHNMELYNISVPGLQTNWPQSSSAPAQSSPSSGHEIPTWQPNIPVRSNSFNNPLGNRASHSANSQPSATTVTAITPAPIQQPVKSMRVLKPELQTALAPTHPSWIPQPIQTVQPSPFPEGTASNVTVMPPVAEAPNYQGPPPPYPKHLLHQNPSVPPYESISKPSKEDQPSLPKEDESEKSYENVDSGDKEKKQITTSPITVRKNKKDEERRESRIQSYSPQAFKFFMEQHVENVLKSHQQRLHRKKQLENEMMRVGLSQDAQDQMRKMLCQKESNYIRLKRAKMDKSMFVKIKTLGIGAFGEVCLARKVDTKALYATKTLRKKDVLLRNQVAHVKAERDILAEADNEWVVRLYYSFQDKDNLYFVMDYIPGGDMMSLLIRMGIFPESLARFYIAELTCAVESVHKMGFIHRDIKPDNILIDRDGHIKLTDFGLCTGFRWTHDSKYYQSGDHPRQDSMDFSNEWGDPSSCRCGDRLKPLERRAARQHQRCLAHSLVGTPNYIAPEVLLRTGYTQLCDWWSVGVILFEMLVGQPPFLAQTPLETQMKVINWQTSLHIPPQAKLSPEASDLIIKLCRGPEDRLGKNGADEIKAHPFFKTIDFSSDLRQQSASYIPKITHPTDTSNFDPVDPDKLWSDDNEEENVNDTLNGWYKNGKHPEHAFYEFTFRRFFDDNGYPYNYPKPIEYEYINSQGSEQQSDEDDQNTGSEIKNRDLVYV

One assay concerns the target GST-LATS1 K860R (UniProt O95835). The assay is described as follows: pull-down; HERC4 co-expressed with GST-LATS1 constructs in MCF-7 cells; GST-tagged bait on GST beads (Pierce GST Protein Interaction Pull-Down Kit), prey sample at 4 °C for at least 1 h; Western blot. On the technique in general: Immunoblotting shows a protein as a band on a membrane.
A further assay concerns the target GST-LATS1 K1005R (UniProt O95835). The assay is described as above.

These are yes or no findings as the source states them, for the method shown. Binding seen in cells or lysates may run through a third protein.

B1: HERC4 (expressed from a vector with human HERC4 cDNA) (enzyme, UniProt Q5GLZ8 1-1057)
chain: MLCWGNASFGQLGLGGIDEEIVLEPRKSDFFINKRVRDVGCGLRHTVFVLDDGTVYTCGCNDLGQLGHEKSRKKPEQVVALDAQNIVAVSCGEAHTLALNDKGQVYAWGLDSDGQLGLVGSEECIRVPRNIKSLSDIQIVQVACGYYHSLALSKASEVFCWGQNKYGQLGLGTDCKKQTSPQLLKSLLGIPFMQVAAGGAHSFVLTLSGAIFGWGRNKFGQLGLNDENDRYVPNLLKSLRSQKIVYICCGEDHTAALTKEGGVFTFGAGGYGQLGHNSTSHEINPRKVFELMGSIVTEIACGRQHTSAFVPSSGRIYSFGLGGNGQLGTGSTSNRKSPFTVKGNWYPYNGQCLPDIDSEEYFCVKRIFSGGDQSFSHYSSPQNCGPPDDFRCPNPTKQIWTVNEALIQKWLSYPSGRFPVEIANEIDGTFSSSGCLNGSFLAVSNDDHYRTGTRFSGVDMNAARLLFHKLIQPDHPQISQQVAASLEKNLIPKLTSSLPDVEALRFYLTLPECPLMSDSNNFTTIAIPFGTALVNLEKAPLKVLENWWSVLEPPLFLKIVELFKEVVVHLLKLYKIGIPPSERRIFNSFLHTALKVLEILHRVNEKMGQIIQYDKFYIHEVQELIDIRNDYINWVQQQAYGMDVNHGLTELADIPVTICTYPFVFDAQAKTTLLQTDAVLQMQMAIDQAHRQNVSSLFLPVIESVNPCLILVVRRENIVGDAMEVLRKTKNIDYKKPLKVIFVGEDAVDAGGVRKEFFLLIMRELLDPKYGMFRYYEDSRLIWFSDKTFEDSDLFHLIGVICGLAIYNCTIVDLHFPLALYKKLLKKKPSLDDLKELMPDVGRSMQQLLDYPEDDIEETFCLNFTITVENFGATEVKELVLNGADTAVNKQNRQEFVDAYVDYIFNKSVASLFDAFHAGFHKVCGGKVLLLFQPNELQAMVIGNTNYDWKELEKNTEYKGEYWAEHPTIKIFWEVFHELPLEKKKQFLLFLTGSDRIPILGMKSLKLVIQSTGGGEEYLPVSHTCFNLLDLPKYTEKETLRSKLIQAIDHNEGFSLI
On to B1, for which the binding result with GST-LATS1 K860R and with GST-LATS1 K1005R was “no binding” each time.
